Changes are numbered by the printed parent chain. Names may count otherwise. Results are given in words; binding and its absence hold for the method and conditions named. Some results given as binding are weak or reduced against the parent protein; the word gives no strength. Tags and fused reporters may be left off the sequences shown. Each block holds one binder with its values, some of them ahead of it.
How the values were obtained:
[1] = molecular target: V231G hArc variant (polymorphism rs201562490), cleaved from the His-ZZ fusion protein (human) (UniProt Q7LC44); test: dynamic light scattering; V231G hArc, size distribution and thermal scans compared with the wild type; results not shown; both purified
[2] = molecular target: recombinant human Arc (activity-regulated cytoskeleton-associated protein), wild type, cleaved from the His-ZZ-hArc fusion protein (human) (UniProt Q7LC44); test: dynamic light scattering; hArc 22 μM (1 mg/ml) in double-distilled water, 36°C; both purified
[3] = molecular target: T1, GST-hArc fusion protein (human) (UniProt Q7LC44); test: SPR; Biacore 3000, 25°C, HBS-EP (10 mM sodium Hepes, pH 7.4, 150 mM NaCl, 3 mM EDTA, 0.005% P20); GST-hArc captured by immobilised anti-GST antibody (280-320 RU); peptides injected at 100-400 μM; 1:1 Langmuir fit; both purified
T1 sequence: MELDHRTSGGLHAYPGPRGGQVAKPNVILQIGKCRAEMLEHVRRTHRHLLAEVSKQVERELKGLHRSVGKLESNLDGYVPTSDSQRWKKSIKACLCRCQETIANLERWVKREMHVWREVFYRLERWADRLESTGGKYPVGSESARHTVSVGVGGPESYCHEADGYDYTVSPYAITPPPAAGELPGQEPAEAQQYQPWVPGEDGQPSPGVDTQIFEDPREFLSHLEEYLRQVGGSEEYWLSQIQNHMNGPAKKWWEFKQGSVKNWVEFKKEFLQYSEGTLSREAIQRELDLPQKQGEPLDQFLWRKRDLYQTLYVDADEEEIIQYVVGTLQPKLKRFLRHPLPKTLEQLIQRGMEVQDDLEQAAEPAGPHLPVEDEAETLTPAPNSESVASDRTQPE

binding [1]: binds
B1: V231G hArc variant (polymorphism rs201562490), cleaved from the His-ZZ fusion protein (protein, UniProt Q7LC44 1-396)
chain: T1 sequence with V231G

B2: recombinant human Arc (activity-regulated cytoskeleton-associated protein), wild type, cleaved from the His-ZZ-hArc fusion protein (natural protein, UniProt Q7LC44 1-396, looked up)
chain: T1 sequence
notes: human Arc (activity-regulated cytoskeleton-associated protein); called full-length hArc; Vector pETZZ_1a; also called WT hArc; Arc/Arg3.1; source: E. coli BL21-CodonPlus, auto-induction medium, purified (Ni-NTA, TEV cleavage, second Ni-NTA flow-through); not shown: His, N-terminal, cleaved; ZZ domain, N-terminal, cleaved
binding [2]: no binding (condition: in double-distilled water (22 μM))

binding [3]: binds weakly
Binder: EQLTKCEVFRELKDLKGY [Peptide A, corresponding to the N-terminal region of α-lactalbumin]

From article PMC4422259, “Arc is a flexible modular protein capable of reversible self-oligomerization” (Biochemical Journal, 2015)
